# Source: PubChem BioAssay AID1487 (National Center for Advancing Translational Sciences (NCATS), 2009)
# Some of the results follow. Shown are side measurements of this screen, not its main read-out; they come without a call. Compounds called inactive in the main read-out are mostly missing here. The note in brackets gives the kind of curve behind each potency; many fits are weak.
# Assay: qHTS Assay for Modulators of Lamin A Splicing
# Conditions: HeLa LMNA splicing GFP/RFP minigene ratio, 48 h
# Procedure, shortened: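 S3 HeLa stable clones carrying a lamin A-EGFP splicing minigene plus DsRed2 were seeded at 600 cells/well in Opti-MEM with 2% FBS, pin-dosed and incubated 48 h at 37°C. Acumen cytometry (488 nm) gave the GFP/RFP total-intensity ratio.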
# [1] = measured here: RFP viability control channel
# [2] = measured here: GFP splicing reporter channel
SMILES,AC50 [1],AC50 [2]
CCOC(=O)COc1ccc2ccccc2c1/C=C/[N+](=O)[O-],"11.2 µM [rising, partial curve]",
CC(=O)c1sc(-c2cccc(Cl)c2)nc1C,,"0.0158 µM [falling, full curve]"
Cc1ccc(S(=O)(=O)c2ccc(Cl)cc2)cc1S(=O)(=O)N1CCN(C)CC1,"12.6 µM [rising, single point]",
CC(C)CCNC(=O)Cn1c(-c2cccs2)cc2cc(F)ccc21,"0.02 µM [rising, full curve, poor fit]",
Cc1cccc(-n2cc(-c3ccccc3)c3c(=O)[nH]cnc32)c1,"17.8 µM [rising, single point]",
CC1(C)OC(=O)C(=NNc2ccc(O)cc2)C(=O)O1,"15.8 µM [rising, partial curve]","28.2 µM [rising, single point]"
CCN1C(=O)N(C)[C@@H](c2ccccc2)C(C(=O)OC)=C1C,"0.398 µM [falling, full curve, poor fit]","1.58 µM [falling, partial curve]"
FC(F)(F)c1cccc(NC(=S)NNC(=S)NCc2ccccc2)c1,"35.5 µM [rising, single point]","20 µM [rising, single point]"
CC(C)C(OC(=O)c1cc2occc2n1C)C(=O)NCc1ccc2c(c1)OCO2 (stereo unspecified),"35.5 µM [rising, single point]",
CC(C)(CS)C(=O)N1CCC[C@H]1C(=O)O,"0.398 µM [falling, full curve, poor fit]","0.224 µM [falling, full curve]"
Cc1ccc2nc(-c3cccc(NS(C)(=O)=O)c3)cc(-c3ccccc3)c2c1,"11.2 µM [falling, partial curve]","11.2 µM [falling, partial curve]"
C/C(=N\NC(=O)CNc1ccccc1)c1ccccc1,,"0.0251 µM [rising, full curve, poor fit]"
Cc1ccc2oc(C(=O)NCc3ccc4c(c3)OCO4)c(C)c2c1,"35.5 µM [rising, single point]","31.6 µM [rising, single point]"
Cc1ccc(CNC(=O)c2ccc(CN3CC(=O)N4CCCCC4C3=O)cc2)cc1 (stereo unspecified),"0.0282 µM [falling, full curve, poor fit]",
COC(=O)c1ccc(OS(=O)(=O)c2ccc(NC(C)=O)cc2)cc1,"35.5 µM [rising, single point]",
CCOC(=O)N1CCN(c2ccc(S(=O)(=O)N(Cc3ccccc3)Cc3ccccc3)cn2)CC1,"3.55 µM [rising, full curve, poor fit]",
O=C(Nc1cccc(-c2cn3ccccc3n2)c1)c1cccc(Cl)c1,"35.5 µM [falling, single point]",

# Entries of single compounds from above.
# CC1(C)OC(=O)C(=NNc2ccc(O)cc2)C(=O)O1 in the list: AC50 [1]: 15.8 µM [rising, partial curve]; AC50 [2]: 28.2 µM [rising, single point]
# CCN1C(=O)N(C)[C@@H](c2ccccc2)C(C(=O)OC)=C1C in the list: AC50 [1]: 0.398 µM [falling, full curve, poor fit]; AC50 [2]: 1.58 µM [falling, partial curve]

# Next records follow.

SMILES,AC50 [1],AC50 [2]
COc1ccc(N2CCN(C(=O)c3cc(N4C(=O)C5C6CCC(C6)C5C4=O)ccc3Cl)CC2)cc1 (stereo unspecified),"14.1 µM [rising, partial curve]","10 µM [rising, partial curve, poor fit]"
O=C1c2ccccc2-c2cccc(C(=O)N3CCN(C(=O)c4ccccc4)CC3)c21,"6.31 µM [falling, full curve, poor fit]","0.0251 µM [falling, full curve, poor fit]"
Nc1cc(Cl)ccc1C(=O)OCC(=O)NC1CCCCC1,"31.6 µM [falling, partial curve]","25.1 µM [falling, partial curve]"
O=C(CSc1ccccn1)N1CCc2ccccc21,"0.00447 µM [falling, full curve, poor fit]",
CC(=O)O[C@]1(C(C)=O)CC[C@H]2[C@@H]3C[C@H](C)C4=CC(=O)CC[C@]4(C)[C@H]3CC[C@@]21C,"35.5 µM [rising, single point]","22.4 µM [rising, single point]"
CCNC(=O)/N=C1/NC(=O)C(C(C)C)O1 (stereo unspecified),"3.98 µM [rising, single point]",
CCN(CC(=O)NC1CCS(=O)(=O)C1)S(=O)(=O)c1cccc(C(C)=O)c1 (stereo unspecified),,"8.91 µM [falling, partial curve, poor fit]"
O=C(O)c1cc(-c2ccccc2)nc2ccccc12,"7.94 µM [falling, partial curve, poor fit]",
COc1ccc(NC(=O)c2cc3sccc3n2Cc2ccc(F)cc2)cc1OC,"35.5 µM [falling, single point]","35.5 µM [falling, single point]"
Cc1nc(NCc2ccc3c(c2)OCO3)c2oc3ccccc3c2n1,"15.8 µM [rising, partial curve]","10 µM [rising, partial curve]"
COc1ccccc1-c1c(-c2ccc(OCC(=O)NN)cc2O)n[nH]c1C(F)(F)F,"28.2 µM [rising, single point]","12.6 µM [rising, partial curve]"
CCOC(=O)Cn1c2c(c(=N)c3c1CCC3)CCC2,"11.2 µM [rising, partial curve]","15.8 µM [rising, partial curve]"
COc1ccc(Nc2ncnc3sc(-c4ccccc4)cc23)cc1OC,"35.5 µM [rising, single point]","35.5 µM [rising, single point]"
CCOC(=O)c1[nH]cnc1C(=O)Nc1ccc(F)cc1,,"35.5 µM [falling, single point]"
COc1ccccc1CC(=O)N1CCN(c2cccc(C(F)(F)F)c2)CC1,"8.91 µM [rising, partial curve]","0.501 µM [rising, full curve, poor fit]"
Cc1ccccc1OC1=NS(=O)(=O)c2ccccc21,"0.0141 µM [falling, full curve]",
CCNc1ncc2nc(-c3cc(F)cc(F)c3)c(=O)n(CCc3ccccc3)c2n1,"15.8 µM [falling, partial curve]","14.1 µM [falling, partial curve]"
